Experimental data reported in patent publication US10299475B2, “Pesticide” (ISHIHARA SANGYO KAISHA, LTD., priority 2013, dated 2019).
Some of these results come from one statement about several compounds together. For at least one compound, name, drawing or mass did not settle the structure.

tested on: Haemaphysalis longicornis (larvae); assay: Test for examining effect on Haemaphysalis longicornis (larvae), coated vial contact test; format: in vivo; details: 100 ppm solution coated on plastic vial, 20 larvae, 24 hours after contact, 25° C., constant dark, relative humidity 80-100%
Text: Test for Examining Effect on Haemaphysalis longicornis (larvae)

Compound	mortality [%]
CC(C)CNC(=O)c1ccc(CCOc2cccc(-c3cccc(Cl)c3Cl)c2)cc1 [4-186]	≥ 90
CC(C)CNC(=O)c1ccc(CCOc2cccc(-c3cc(Cl)cc(Cl)c3)c2)cc1 [4-191]	≥ 90
CC(C)CNC(=O)c1ccc(CCOc2cccc(-c3cccc(Cl)c3F)c2)cc1 [4-372]	≥ 90
CC(C)CNC(=O)c1ccc(CCOc2cccc(-c3ccc(Cl)cc3F)c2)cc1 [4-373]	≥ 90
CC(C)CNC(=O)c1ccc(CCOc2cccc(-c3cc(Cl)ccc3F)c2)cc1 [4-374]	≥ 90
CC(C)CNC(=O)c1ccc(CCOc2cccc(-c3ccc(Cl)c(F)c3)c2)cc1 [4-376]	≥ 90
CC(C)CNC(=O)c1ccc(CCOc2cccc(-c3cc(F)cc(Cl)c3)c2)cc1 [4-377]	≥ 90
CC(C)CNC(=O)c1ccc(CCOc2cccc(-c3cc(F)ccc3Cl)c2)cc1 [4-378]	≥ 90
CC(C)CNC(=O)c1ccc(CCOc2cccc(-c3ccc(F)c(Cl)c3)c2)cc1 [4-379]	≥ 90
CC(C)CNC(=O)c1ccc(CCOc2cccc(-c3cccc(F)c3Cl)c2)cc1 [4-381]	≥ 90
CC(C)CNC(=O)c1ccc(CCOc2cccc(-c3ccc(F)c(F)c3F)c2)cc1 [4-672]	≥ 90
CC(C)CNC(=O)c1ccc(CCOc2cccc(-c3cc(F)cc(F)c3F)c2)cc1 [4-673]	≥ 90
CC(C)CNC(=O)c1ccc(CCOc2cccc(-c3c(F)cc(F)cc3F)c2)cc1 [4-676]	≥ 90
CC(C)CNC(=O)c1ccc(CCOc2cccc(-c3cc(F)c(F)c(F)c3)c2)cc1 [4-677]	≥ 90
CC(C)CNC(=O)c1ccc(CCOc2cccc(-c3ccccn3)c2)cc1 [6-1]	≥ 90
CC(C)C(C)NC(=O)c1ccc(CCOc2cccc(-c3ccccn3)c2)cc1 (centres unmarked) [6-2]	≥ 90
CC(C)CNC(=O)c1ccc(CCOc2cccc(-c3ccsc3)c2)cc1 [8-1]	≥ 90
CC(C)C(C)NC(=O)c1ccc(CCOc2cccc(-c3ccsc3)c2)cc1 (centres unmarked) [8-2]	≥ 90
CC(C)CNC(=O)c1ccc(CCOc2cccc(-c3cccs3)c2)cc1 [9-1]	≥ 90
CC(C)C(C)NC(=O)c1ccc(CCOc2cccc(-c3cccs3)c2)cc1 (centres unmarked) [9-2]	≥ 90
C#Cc1cccc(OCCc2ccc(C(=O)NCC(C)C)cc2)c1 [11-2]	≥ 90
CCCC#Cc1cccc(OCCc2ccc(C(=O)NCC(C)C)cc2)c1 [11-5]	≥ 90
CC(C)CNC(=O)c1ccc(CCOc2cccc(C#CC(C)(C)C)c2)cc1 [11-11]	≥ 90
CC(C)CNC(=O)c1ccc(CCOc2cccc(C#CC3CCCCC3)c2)cc1 [11-20]	≥ 90
CC(C)CNC(=O)c1ccc(CCOc2cccc(C#Cc3ccccc3)c2)cc1 [11-21]	≥ 90
CC(C)CNC(=O)c1ccc(CCOc2ccc(Cl)c(C#C[Si](C)(C)C)c2)cc1 [11-31]	≥ 90
